In assay [1] the target is T1, GST-BI-2 fusion protein (human) (UniProt Q9NZS9).
T1 sequence: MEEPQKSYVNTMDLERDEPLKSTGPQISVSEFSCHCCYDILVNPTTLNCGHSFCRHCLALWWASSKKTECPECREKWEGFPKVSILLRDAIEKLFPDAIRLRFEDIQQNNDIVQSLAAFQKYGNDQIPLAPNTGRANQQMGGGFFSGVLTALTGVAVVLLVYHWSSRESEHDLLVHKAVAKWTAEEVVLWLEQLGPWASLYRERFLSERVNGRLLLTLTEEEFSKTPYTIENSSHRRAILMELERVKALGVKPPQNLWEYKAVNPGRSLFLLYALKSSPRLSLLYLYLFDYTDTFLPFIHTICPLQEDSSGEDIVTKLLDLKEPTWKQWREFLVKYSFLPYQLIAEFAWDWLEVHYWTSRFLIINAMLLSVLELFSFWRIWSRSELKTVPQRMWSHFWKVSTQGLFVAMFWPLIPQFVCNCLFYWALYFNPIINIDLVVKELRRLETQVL
The experiment in a line: GST pull-down (summary sentence of Example V).

Assay [2] addresses T1, GST-BI-2 fusion protein (human). The experiment in a line: GST pull-down on glutathione SEPHAROSE, 35S-labeled in vitro translated protein, SDS-PAGE and autoradiography.

These are yes or no findings as the source states them, for the method shown. Binding seen in cells or lysates may run through a third protein. Some results given as binding are weak or reduced against the parent protein; the word gives no strength. Sequences can lack the tags named with a protein.

B1: 35S-labeled in vitro translated HA-tagged BI-2 (protein, not shown: small tags and cut ends)
chain: T1 sequence
modifications: 35S-labeled methionine (in vitro translation)
Take B1: the binding entry in assay [1] and in assay [2] was “binds” in each case.

Values taken from patent publication US6545128 (BURNHAM INSTITUTE, dated 2003).
